From publication PMC11759936
These are yes or no findings as the source states them, for the method shown. Binding seen in cells or lysates may run through a third protein. Binding can be weak; no strength is given. For some assays here: Sequences can lack the tags named with a protein. One block for each binder: values may come before it.

Key:
[1] = molecular target: OsHsp40-1 (CoIP construct) (rice (Oryza sativa L.)); experiment: co-IP; coimmunoprecipitation (CoIP); details in the supplementary data
[2] = molecular target: OsHsp40-1 (BiFC fusion) (rice (Oryza sativa L.)); experiment: split reporter; BiFC in rice protoplasts; 1300S-YN + 2300S-YC as negative control
[3] = molecular target: OsHsp40-1 (LCI fusion) (rice (Oryza sativa L.)); experiment: split reporter; firefly luciferase complementation imaging (LCI) in Nicotiana benthamiana leaves
[4] = molecular target: GST-OsHsp40-1 (rice (Oryza sativa L.)); experiment: pull-down; GST pull-down of OsHsp40-1 with OsGBSSI or OsPPDKB; which partner carried GST is not told

binding [1]: binds
B1: OsGBSSI (CoIP construct) (enzyme, UniProt Q0DEV5 78-609)
chain: ATGAGMNVVFVGAEMAPWSKTGGLGDVLGGLPPAMAANGHRVMVISPRYDQYKDAWDTSVVAEIKVADRYERVRFFHCYKRGVDRVFIDHPSFLEKVWGKTGEKIYGPDTGVDYKDNQMRFSLLCQAALEAPRILNLNNNPYFKGTYGEDVVFVCNDWHTGPLASYLKNNYQPNGIYRNAKVAFCIHNISYQGRFAFEDYPELNLSERFRSSFDFIDGYDTPVEGRKINWMKAGILEADRVLTVSPYYAEELISGIARGCELDNIMRLTGITGIVNGMDVSEWDPSKDKYITAKYDATTAIEAKALNKEALQAEAGLPVDRKIPLIAFIGRLEEQKGPDVMAAAIPELMQEDVQIVLLGTGKKKFEKLLKSMEEKYPGKVRAVVKFNAPLAHLIMAGADVLAVPSRFEPCGLIQLQGMRYGTPCACASTGGLVDTVIEGKTGFHMGRLSVDCKVVEPSDVKKVAATLKRAIKVVGTPAYEEMVRNCMNQDLSWKGPAKNWENVLLGLGVAGSAPGIEGDEIAPLAKENVAAP

binding [2]: binds
B2: OsGBSSI (BiFC fusion) (enzyme, UniProt Q0DEV5 78-609)
chain: B1 chain

binding [3]: binds
B3: OsGBSSI (LCI fusion) (enzyme, UniProt Q0DEV5 78-609)
chain: B1 chain

binding [4]: binds
B4: His-OsGBSSI (enzyme, UniProt Q0DEV5 78-609)
chain: B1 chain

binding [1]: binds
B5: OsPPDKB (CoIP construct) (enzyme, UniProt Q6AVA8 72-947)
chain: TTKKRVFHFGKGKSEGNKAMKDLLGGKGANLAEMASIGLSVPPGFTVSTEACQQYQAAGKTLPAGLWEEIVEGLQWVEEYMAARLGDPARPLLLSVRSGAAVSMPGMMDTVLNLGLNDEVAAGLAAKSGDRFAYDSYRRFLDMFGNVVMDIPHALFEEKLEAMKAVKGLHNDTDLTATDLKELVAQYKDVYVEAKGEPFPSDPKKQLQLAVLAVFNSWDSPRAIKYRSINKITGLKGTAVNVQTMVFGNMGNTSGTGVLFTRNPSTGEKKLYGEFLVNAQGEDVVAGIRTPEDLDAMRDHMPEPYEELVENCKILESHYKEMMDIEFTVQENRLWMLQCRTGKRTGKGAVKIAVDMVNEGLVERRTALKMVEPGHLDQLLHPQFENPSGYKDKVIATGLPASPGAAVGQIVFTAEDAEAWHAQGKDVILVRTETSPEDVGGMHAAVGILTARGGMTSHAAVVARGWGKCCVSGCSSVRVNDASKIVVIEDKALHEGEWLSLNGSTGEVIIGKQPLCPPALSGDLETFMSWVDEVRKLKVMANADTPEDATTARQNGAEGIGLCRTEHMFFASDERIKAVRQMIMASSLELRQKALDRLLPYQRSDFEGIFRAMDGLPVTIRLLDPPLHEFLPEGHVEDMVRELCSETGAAQDDVLARVEKLSEVNPMLGFRGCRLGISYPELTEMQARAIFEAAITMTNQGIQVFPEIMVPLVGTPQELGHQVDVIRQIANKVFTDMGKTIGYKVGTMIEIPRAALVADEIAEQAEFFSFGTNDLTQMTFGYSRDDVGKFLPIYLSQGILQHDPFEVLDQRGVGELVKLATERGRKARPNLKVGICGEHGGEPLSVAFFAKAGLDYVSCSPFRVPIARLAAAQVLL

binding [3]: binds
B6: OsPPDKB (LCI fusion) (enzyme, UniProt Q6AVA8 72-947)
chain: B5 chain

binding [4]: binds
B7: His-OsPPDKB (enzyme, UniProt Q6AVA8 72-947)
chain: B5 chain

binding [2]: binds
B8: OsPPDKB (BiFC fusion) (enzyme, UniProt Q6AVA8 72-947)
chain: B5 chain
